Results reported in the supplement of paper PMC8728848.
The other results are listed elsewhere or left out.

Key:
Assay in all cases: glycan array binding signal (z-score within array); higher = stronger binding
Conditions in all cases: glycan notation: IUPAC condensed, linker removed
[1] = molecular target: Neu5Ac(a2-3)Gal6S(b1-4)[Fuc(a1-3)]GlcNAc
Method in brief: (§1)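 Columns mapping to the same glycan were averaged after glycan names were converted to IUPAC-condensed notation. The data come from 3228 arrays in the Consortium for Functional Glycomics database, limited to those with an available protein sequence. Binding is reported as a within-array Z-score averaged across arrays of one protein sequence and across linkers.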

Neu5Ac(a2-3)GalNAc = molecular target: Neu5Ac(a2-3)GalNAc
Method in brief: as §1

[2] = molecular target: Neu5Ac(a2-3)GalNAc(b1-4)GlcNAc
Method in brief: as §1

[3] = molecular target: Neu5Ac(a2-3)[GalNAc(b1-4)]Gal(b1-4)Glc
Method in brief: as §1

[4] = molecular target: Neu5Ac(a2-3)[GalNAc(b1-4)]Gal(b1-4)GlcNAc
Method in brief: as §1

[5] = molecular target: Neu5Ac(a2-3)[GalNAc(b1-4)]Gal(b1-4)GlcNAc(b1-3)GalNAc
Method in brief: as §1

[6] = molecular target: Neu5Ac(a2-3)[Neu5Ac(a2-6)]GalNAc
Method in brief: as §1

Neu5Ac(a2-6)Gal = molecular target: Neu5Ac(a2-6)Gal
Method in brief: as §1

[7] = molecular target: Neu5Ac(a2-6)Gal(b1-3)GlcNAc(b1-3)[Gal(b1-4)GlcNAc(b1-6)]Gal(b1-4)Glc
Method in brief: as §1

Neu5Ac(a2-6)Gal(b1-4)Glc = molecular target: Neu5Ac(a2-6)Gal(b1-4)Glc
Method in brief: as §1

[8] = molecular target: Neu5Ac(a2-6)Gal(b1-4)GlcNAc
Method in brief: as §1

[9] = molecular target: Neu5Ac(a2-6)Gal(b1-4)GlcNAc(b1-2)Man
Method in brief: as §1

[10] = molecular target: Neu5Ac(a2-6)Gal(b1-4)GlcNAc(b1-2)Man(a1-3)Man(b1-4)GlcNAc(b1-4)GlcNAc
Method in brief: as §1

[11] = molecular target: Neu5Ac(a2-6)Gal(b1-4)GlcNAc(b1-2)Man(a1-3)[Gal(b1-4)GlcNAc(b1-2)Man(a1-6)]Man(b1-4)GlcNAc(b1-4)GlcNAc
Method in brief: as §1

[12] = molecular target: Neu5Ac(a2-6)Gal(b1-4)GlcNAc(b1-2)Man(a1-3)[GlcNAc(b1-2)Man(a1-6)]Man(b1-4)GlcNAc(b1-4)GlcNAc
Method in brief: as §1

[13] = molecular target: Neu5Ac(a2-6)Gal(b1-4)GlcNAc(b1-2)Man(a1-3)[GlcNAc(b1-4)][Neu5Ac(a2-6)Gal(b1-4)GlcNAc(b1-2)Man(a1-6)]Man(b1-4)GlcNAc(b1-4)GlcNAc
Method in brief: as §1

[14] = molecular target: Neu5Ac(a2-6)Gal(b1-4)GlcNAc(b1-2)Man(a1-3)[Man(a1-6)]Man(b1-4)GlcNAc(b1-4)GlcNAc
Method in brief: as §1

[15] = molecular target: Neu5Ac(a2-6)Gal(b1-4)GlcNAc(b1-2)Man(a1-3)[Neu5Ac(a2-3)Gal(b1-4)GlcNAc(b1-2)Man(a1-6)]Man(b1-4)GlcNAc(b1-4)GlcNAc
Method in brief: as §1

[16] = molecular target: Neu5Ac(a2-6)Gal(b1-4)GlcNAc(b1-2)Man(a1-3)[Neu5Ac(a2-6)Gal(b1-4)GlcNAc(b1-2)Man(a1-6)]Man(b1-4)GlcNAc(b1-4)GlcNAc
Method in brief: as §1

[17] = molecular target: Neu5Ac(a2-6)Gal(b1-4)GlcNAc(b1-2)Man(a1-3)[Neu5Ac(a2-6)Gal(b1-4)GlcNAc(b1-2)Man(a1-6)]Man(b1-4)GlcNAc(b1-4)[Fuc(a1-6)]GlcNAc
Method in brief: as §1

[18] = molecular target: Neu5Ac(a2-6)Gal(b1-4)GlcNAc(b1-2)Man(a1-6)Man(b1-4)GlcNAc(b1-4)GlcNAc
Method in brief: as §1

[19] = molecular target: Neu5Ac(a2-6)Gal(b1-4)GlcNAc(b1-2)Man(a1-6)[Gal(b1-4)GlcNAc(b1-2)Man(a1-3)]Man(b1-4)GlcNAc(b1-4)GlcNAc
Method in brief: as §1

[20] = molecular target: Neu5Ac(a2-6)Gal(b1-4)GlcNAc(b1-2)Man(a1-6)[GlcNAc(b1-2)Man(a1-3)]Man(b1-4)GlcNAc(b1-4)GlcNAc
Method in brief: as §1

[21] = molecular target: Neu5Ac(a2-6)Gal(b1-4)GlcNAc(b1-2)Man(a1-6)[Man(a1-3)]Man(b1-4)GlcNAc(b1-4)GlcNAc
Method in brief: as §1

[22] = molecular target: Neu5Ac(a2-6)Gal(b1-4)GlcNAc(b1-2)[Neu5Ac(a2-6)Gal(b1-4)GlcNAc(b1-4)]Man(a1-3)[GlcNAc(b1-4)][Neu5Ac(a2-6)Gal(b1-4)GlcNAc(b1-2)[Neu5Ac(a2-6)Gal(b1-4)GlcNAc(b1-6)]Man(a1-6)]Man(b1-4)GlcNAc(b1-4)GlcNAc
Method in brief: as §1

[23] = molecular target: Neu5Ac(a2-6)Gal(b1-4)GlcNAc(b1-2)[Neu5Ac(a2-6)Gal(b1-4)GlcNAc(b1-4)]Man(a1-3)[GlcNAc(b1-4)][Neu5Ac(a2-6)Gal(b1-4)GlcNAc(b1-4)Man(a1-6)]Man(b1-4)GlcNAc(b1-4)GlcNAc
Method in brief: as §1

[24] = molecular target: Neu5Ac(a2-6)Gal(b1-4)GlcNAc(b1-2)[Neu5Ac(a2-6)Gal(b1-4)GlcNAc(b1-6)]Man(a1-6)[Neu5Ac(a2-6)Gal(b1-4)GlcNAc(b1-2)Man(a1-3)][GlcNAc(b1-4)]Man(b1-4)GlcNAc(b1-4)GlcNAc
Method in brief: as §1

[25] = molecular target: Neu5Ac(a2-6)Gal(b1-4)GlcNAc(b1-3)Gal(b1-3)GlcNAc
Method in brief: as §1

[26] = molecular target: Neu5Ac(a2-6)Gal(b1-4)GlcNAc(b1-3)Gal(b1-4)GlcNAc
Method in brief: as §1

[27] = molecular target: Neu5Ac(a2-6)Gal(b1-4)GlcNAc(b1-3)Gal(b1-4)GlcNAc(b1-2)Man(a1-3)[Neu5Ac(a2-6)Gal(b1-4)GlcNAc(b1-3)Gal(b1-4)GlcNAc(b1-2)Man(a1-6)]GalNAc
Method in brief: as §1

[28] = molecular target: Neu5Ac(a2-6)Gal(b1-4)GlcNAc(b1-3)Gal(b1-4)GlcNAc(b1-3)Gal(b1-4)GlcNAc
Method in brief: as §1

[29] = molecular target: Neu5Ac(a2-6)Gal(b1-4)GlcNAc(b1-3)Gal(b1-4)GlcNAc(b1-3)Gal(b1-4)GlcNAc(b1-2)Man(a1-3)[Neu5Ac(a2-6)Gal(b1-4)GlcNAc(b1-3)Gal(b1-4)GlcNAc(b1-3)Gal(b1-4)GlcNAc(b1-2)Man(a1-6)]GalNAc
Method in brief: as §1

[30] = molecular target: Neu5Ac(a2-6)Gal(b1-4)GlcNAc(b1-3)Gal(b1-4)GlcNAc(b1-3)GalNAc
Method in brief: as §1

[31] = molecular target: Neu5Ac(a2-6)Gal(b1-4)GlcNAc(b1-3)Gal(b1-4)GlcNAc(b1-3)[Neu5Ac(a2-6)Gal(b1-4)GlcNAc(b1-3)Gal(b1-4)GlcNAc(b1-6)]GalNAc
Method in brief: as §1

[32] = molecular target: Neu5Ac(a2-6)Gal(b1-4)GlcNAc(b1-3)Gal(b1-4)GlcNAc(b1-6)[Gal(b1-3)]GalNAc
Method in brief: as §1

[33] = molecular target: Neu5Ac(a2-6)Gal(b1-4)GlcNAc(b1-3)Gal(b1-4)[Fuc(a1-3)]GlcNAc(b1-3)Gal(b1-4)[Fuc(a1-3)]GlcNAc
Method in brief: as §1

[34] = molecular target: Neu5Ac(a2-6)Gal(b1-4)GlcNAc(b1-3)GalNAc
Method in brief: as §1

B1: MtEccB1 (Mycobacterium tuberculosis H37Rv), O69734 (protein)
chain: MGLRLTTKVQVSGWRFLLRRLEHAIVRRDTRMFDDPLQFYSRSIALGIVVAVLILAGAALLAYFKPQGKLGGTSLFTDRATNQLYVLLSGQLHPVYNLTSARLVLGNPANPATVKSSELSKLPMGQTVGIPGAPYATPVSAGSTSIWTLCDTVARADSTSPVVQTAVIAMPLEIDASIDPLQSHEAVLVSYQGETWIVTTKGRHAIDLTDRALTSSMGIPVTARPTPISEGMFNALPDMGPWQLPPIPAAGAPNSLGLPDDLVIGSVFQIHTDKGPQYYVVLPDGIAQVNATTAAALRATQAHGLVAPPAMVPSLVVRIAERVYPSPLPDEPLKIVSRPQDPALCWSWQRSAGDQSPQSTVLSGRHLPISPSAMNMGIKQIHGTATVYLDGGKFVALQSPDPRYTESMYYIDPQGVRYGVPNAETAKSLGLSSPQNAPWEIVRLLVDGPVLSKDAALLEHDTLPADPSPRKVPAGASGAP
For B1, which “glycan array binding signal (z-score)” value [1] is on record?
The value was 0.49.

What about the “glycan array binding signal (z-score)” value (Neu5Ac(a2-3)GalNAc) of the same binder?
Its value is -0.198.

What about the “glycan array binding signal (z-score)” value [2] of the same binder?
The value was 0.981.

What about the “glycan array binding signal (z-score)” value [3] of the same binder?
Its value is 1.1.

And the “glycan array binding signal (z-score)” value [4]?
Its value is 0.517.

What about the “glycan array binding signal (z-score)” value [5] of the same binder?
The value was -1.39.

What about the “glycan array binding signal (z-score)” value [6] of the same binder?
Its value is -1.42.

What about the “glycan array binding signal (z-score)” value (Neu5Ac(a2-6)Gal) of the same binder?
Its value is 0.809.

What about the “glycan array binding signal (z-score)” value [7] of the same binder?
Its value is 1.06.

And the “glycan array binding signal (z-score)” value (Neu5Ac(a2-6)Gal(b1-4)Glc)?
The value was -0.932.

And the “glycan array binding signal (z-score)” value [8]?
Its value is -0.95.

What about the “glycan array binding signal (z-score)” value [9] of the same binder?
The value was 0.17.

And the “glycan array binding signal (z-score)” value [10]?
Its value is 0.291.

And the “glycan array binding signal (z-score)” value [11]?
The value was 0.49.

What about the “glycan array binding signal (z-score)” value [12] of the same binder?
The value was -0.013.

And the “glycan array binding signal (z-score)” value [13]?
The value was -0.564.

What about the “glycan array binding signal (z-score)” value [14] of the same binder?
The value was 0.855.

What about the “glycan array binding signal (z-score)” value [15] of the same binder?
The value was -1.03.

What about the “glycan array binding signal (z-score)” value [16] of the same binder?
Its value is 0.893.

What about the “glycan array binding signal (z-score)” value [17] of the same binder?
Its value is 1.6.

What about the “glycan array binding signal (z-score)” value [18] of the same binder?
The value was 0.269.

And the “glycan array binding signal (z-score)” value [19]?
Its value is 0.225.

And the “glycan array binding signal (z-score)” value [20]?
Its value is -0.324.

And the “glycan array binding signal (z-score)” value [21]?
The value was 0.711.

And the “glycan array binding signal (z-score)” value [22]?
The value was 0.299.

What about the “glycan array binding signal (z-score)” value [23] of the same binder?
Its value is -0.214.

And the “glycan array binding signal (z-score)” value [24]?
Its value is -0.566.

And the “glycan array binding signal (z-score)” value [25]?
Its value is 0.815.

And the “glycan array binding signal (z-score)” value [26]?
Its value is -0.021.

What about the “glycan array binding signal (z-score)” value [27] of the same binder?
The value was -1.75.

And the “glycan array binding signal (z-score)” value [28]?
The value was 0.589.

What about the “glycan array binding signal (z-score)” value [29] of the same binder?
Its value is 2.47.

What about the “glycan array binding signal (z-score)” value [30] of the same binder?
The value was 0.326.

What about the “glycan array binding signal (z-score)” value [31] of the same binder?
Its value is -0.257.

What about the “glycan array binding signal (z-score)” value [32] of the same binder?
Its value is -1.25.

And the “glycan array binding signal (z-score)” value [33]?
Its value is 0.844.

What about the “glycan array binding signal (z-score)” value [34] of the same binder?
Its value is -1.57.
